Test results from patent US20060228358A1 (UCB, published 2006).
Results are given in words; binding and its absence hold for the method and conditions named. Some results given as binding are weak or reduced against the parent protein; the word gives no strength.

Sequences of proteins named here, by UniProt entry; tags and fusion partners are left off. Residues count along the entry.
UniProt P01584, residues 117-269: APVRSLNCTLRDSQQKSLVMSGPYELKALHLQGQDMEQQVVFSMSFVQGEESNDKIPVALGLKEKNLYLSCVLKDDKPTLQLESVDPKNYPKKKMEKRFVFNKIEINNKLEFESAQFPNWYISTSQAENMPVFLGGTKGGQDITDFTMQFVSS

Target: T1, recombinant human IL-1β (human, UniProt P01584 117-269)
T1 construct: Only the background speaks of the mature 17 kDa form; also called hIL-1β; interleukin-1β
Assay: BIAcore

- binding: binds
B1: CDR-grafted IC8 antibody gH2gL3 (antibody, V domains shown)
VH: EVQLVESGGGLVQPGGSLRLSCAASGFDFSRYDMSWVRQAPGKGLEWVAYISSGGGSTYFPDTVKGRFTISRDNAKNTLYLQMNSLRAEDTAMYYCARQNKKLTWFDYWGQGTLVTVSS
VL: DIQMTQSPSSLSASVGDRVTITCRTSGNIHNYLTWYQQKPGKAPQLLIYNAKTLADGVPSRFSGSGSGTQFTLTISSLQPEDFANYYCQHFWSLPFTFGQGTKVEIKR
notes: Human gamma-4 heavy and kappa light constant regions (pMRR14 and pMRR10), expressed in CHO-L761 cells
